Primary screen of a compound library

Amino acid sequences for entries named in this document (tags omitted).
UniProt E9BF75, entry or part of it: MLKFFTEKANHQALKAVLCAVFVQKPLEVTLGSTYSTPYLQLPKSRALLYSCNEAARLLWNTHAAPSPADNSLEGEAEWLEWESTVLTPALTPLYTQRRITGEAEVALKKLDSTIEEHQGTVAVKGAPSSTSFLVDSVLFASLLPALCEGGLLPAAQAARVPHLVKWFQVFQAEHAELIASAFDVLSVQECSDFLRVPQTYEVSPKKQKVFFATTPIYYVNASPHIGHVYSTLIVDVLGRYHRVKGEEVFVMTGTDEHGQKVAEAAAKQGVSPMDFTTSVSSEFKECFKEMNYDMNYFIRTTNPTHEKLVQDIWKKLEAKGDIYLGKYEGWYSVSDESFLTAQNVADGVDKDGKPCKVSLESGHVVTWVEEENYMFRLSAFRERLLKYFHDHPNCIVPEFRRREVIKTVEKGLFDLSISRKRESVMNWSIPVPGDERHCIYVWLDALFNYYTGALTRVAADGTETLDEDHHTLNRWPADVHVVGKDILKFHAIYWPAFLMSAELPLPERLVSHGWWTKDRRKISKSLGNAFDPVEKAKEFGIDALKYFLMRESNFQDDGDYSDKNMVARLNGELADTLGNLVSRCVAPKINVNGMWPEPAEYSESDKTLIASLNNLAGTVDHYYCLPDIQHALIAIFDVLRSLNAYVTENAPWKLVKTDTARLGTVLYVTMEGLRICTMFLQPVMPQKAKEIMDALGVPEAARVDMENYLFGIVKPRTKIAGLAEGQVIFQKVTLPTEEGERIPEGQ

From ChEMBL document CHEMBL3988442, “University of Dundee, Small-Polar-MMV Screening Library” (2021).

All values are in %. The controls that fix the scale are not given in the record; negative values are as filed. This is an unselected part of the compounds tested. A dash means the value is not listed here; it may have been measured.

Mtb heat-shock: 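Assay on Mycobacterium tuberculosis, filed only as a heat shock assay from Cornell; the read-out is not stated. The concentration is filed as 10 mM, unlikely as a test dose, so the dose is not known. The record gives no direction; compounds that gave an IC50 in retests scored well above the rest, so higher reads as stronger inhibition. Size under these conditions: about 69,000 compounds, about 930 of them at 50% or above in at least one test.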
Mtb growth Cornell: 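Whole-cell assay for inhibitors of Mycobacterium tuberculosis growth, labelled Cornell in the record; the read-out is not stated. The concentration is filed as 10 mM, unlikely as a test dose, so the dose is not known. Higher means stronger inhibition (inferred from two other growth screens of the library). Size under these conditions: about 53,000 compounds, about 900 of them at 50% or above in at least one test.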
LdMetRS: 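Methionyl-tRNA synthetase (putative), Leishmania donovani (UniProt E9BF75). Primary screen of methionyl-tRNA synthetase; the read-out is not stated. The test concentration is not given. Values are per cent inhibition. Of about 68,000 compounds tested this way, about 24 (0.035%) reached 50% or more in at least one test.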

compound: O=C(O)C(F)(F)F.[H][C@@]12CCCO[C@]1([H])[C@H](OCc1ccncc1)CN2S(=O)(=O)CCC
Mtb heat-shock: -14.14
Mtb growth Cornell: -3.994

compound: O=C(Cc1cccc(F)c1)N1CCc2ncnc(NC3CC3)c2CC1.O=C(O)C(F)(F)F
Mtb heat-shock: 23.69
Mtb growth Cornell: -7.168

compound: CC(C)n1c(=O)c2ccccc2n(CCN(C)C)c1=O.Cl
Mtb heat-shock: -15.84
Mtb growth Cornell: 5.116

compound: Cc1cc(-n2cncn2)ccc1C(=O)N(CC(F)(F)F)C(C)C
Mtb heat-shock: -2.172
LdMetRS: 10.77

compound: CC(C)(C)CN[C@@H]1CO[C@H](CNC(=O)c2cccs2)[C@H]1O
Mtb heat-shock: 4.446
LdMetRS: 10.99

compound: [H][C@@]12COC[C@@H](Cc3nc(C)no3)[C@]1([H])CN(c1cc(OC)ncn1)C2
Mtb heat-shock: 15.78
Mtb growth Cornell: -4.562

compound: O=C(CO)N1CCCC2(CCC(=O)N(CC3CC3)C2)C1 (stereo not drawn)
Mtb heat-shock: 11.66
LdMetRS: 10.15

compound: CN1CCCN(C(=O)NCc2ccccc2Cn2cncn2)CC1
Mtb heat-shock: 7.659
LdMetRS: 4.061

compound: O=C(NCC1(N2CCOCC2)CCSC1)Nc1ccc(F)cc1 (stereo not drawn)
Mtb heat-shock: -10.33
LdMetRS: 6.884

compound: [H][C@]12CC[C@]([H])(CN(C(=O)c3ccccn3)C1)N(C(=O)CCN1CCCC1)C2
Mtb heat-shock: -13.56
Mtb growth Cornell: 13.8

compound: Cc1c(C(=O)N2CCC(N3CCCCC3)CC2)n(C)c2ccc(Cl)cc12
Mtb heat-shock: 8
Mtb growth Cornell: 13.97
LdMetRS: 9.253

compound: [H][C@@]12CCN(Cc3cccc(C)n3)[C@@]1([H])CCN2C(=O)c1cnoc1C
Mtb heat-shock: 15.37
Mtb growth Cornell: -1.464

compound: N#Cc1cc(Cn2cnc(C3CCC3)cc2=O)ccc1F
Mtb heat-shock: 12.39
Mtb growth Cornell: -13.63
LdMetRS: 7.042

compound: C=C(C)CNC(=O)C1CCC(=O)N(C2CCCC2)C1 (stereo not drawn)
Mtb heat-shock: 12.4

compound: O=S1(=O)C[C@@H]2[C@H](C1)N(Cc1cc(Cl)cc(Cl)c1)CCN2CCO
LdMetRS: 5.344

compound: CC(C)c1sc(Cl)nc1C(=O)N1CCN(c2ccccn2)CC1
Mtb heat-shock: -20.61
Mtb growth Cornell: 2.03
LdMetRS: 4.533

compound: Cc1ccc(C)c(CC(=O)NC2CCC(N3C(=O)CCC3=O)CC2)c1 (stereo not drawn)
Mtb heat-shock: 4.962
Mtb growth Cornell: 16.13
LdMetRS: 8.207

compound: COc1cc(-n2cc(CCO)cn2)ccc1NC(C)=O
Mtb heat-shock: -22.85
Mtb growth Cornell: 12.75
LdMetRS: 9.254

compound: Cc1nc(C)n(CC(=O)N2CCCC(c3cc4ccccc4cn3)C2)n1 (stereo not drawn)
Mtb heat-shock: 10.77
Mtb growth Cornell: -16.13
LdMetRS: 12.9

compound: O=C(O)C(F)(F)F.[H][C@]12CCC(=O)N(c3ccccc3)[C@@]1([H])CCN2c1ncc(C)cn1
Mtb heat-shock: 36.02
Mtb growth Cornell: -9.814

compound: [H][C@]12CNC[C@@]1(C(=O)NCc1c(C)noc1C)CN(C(=O)COC)C2
Mtb heat-shock: -1.748
Mtb growth Cornell: -16

compound: O=C(c1ccc[nH]1)N1CCc2ncc(Cn3cccn3)n2CC1
Mtb heat-shock: -24.53
Mtb growth Cornell: -16.8
LdMetRS: 2.198

compound: CC(=O)N1CCCN(Cc2ccon2)c2ccccc21
Mtb heat-shock: 0.2355
Mtb growth Cornell: 21.13
LdMetRS: 11.56

compound: Cc1ccccc1C(C(=O)N1CCN(C(=O)c2ccc[nH]2)CC1)N(C)C (stereo not drawn)
Mtb heat-shock: -4.195
Mtb growth Cornell: -5.826
LdMetRS: 12.1

compound: Oc1cc(CN2CCCCC2c2cccnc2)nc2c(F)cccc12 (stereo not drawn)
Mtb heat-shock: -44.51
Mtb growth Cornell: 24.5
LdMetRS: 18.56

compound: CCS(=O)(=O)c1ccccc1C(=O)NCC1Cc2ccccc2O1 (stereo not drawn)
Mtb heat-shock: -14.34
Mtb growth Cornell: 3.9
LdMetRS: 9.03

compound: COCCC1(C(=O)O)CCCN(CCc2ccccc2)C1 (stereo not drawn)
Mtb heat-shock: 10.38
Mtb growth Cornell: 27.75
LdMetRS: 4.762

compound: COCCNC(=O)[C@H]1CN(Cc2cccs2)C[C@H]2OCC[C@@H]12
LdMetRS: 10.62

compound: O=C(O)C(F)(F)F.O=C(O)C(F)(F)F.[H][C@@]12COC[C@]1([H])[C@H](OCc1csc(C)n1)CN2Cc1cccnc1
Mtb heat-shock: -46.79
Mtb growth Cornell: -2.725

compound: CC(=O)N(Cc1ccoc1)C1CCCCC1
Mtb heat-shock: -2.887
Mtb growth Cornell: 9.774
LdMetRS: 0.7916

compound: O=C1CNCC(C(=O)N2CC(Oc3ccccc3Cl)C2)N1 (stereo not drawn)
Mtb heat-shock: 17.58
Mtb growth Cornell: 10.51
LdMetRS: 22.89

compound: c1nc(NCc2cc3n(n2)CCN(C2CCCCC2)C3)c2nc[nH]c2n1
Mtb heat-shock: 11.38
LdMetRS: 13.2

compound: Cc1nc(CN(C)C2CCN(Cc3cccc4c3OCCO4)C2)no1 (stereo not drawn)
Mtb heat-shock: -8.592
LdMetRS: 13.26

compound: CN(C)CCN1CCCC12CCN(C(=O)c1ccncc1)CC2
LdMetRS: 18.91

compound: CC(C)Nc1nc2c(cc1C(=O)NCC1CC1)CCNCC2.O=C(O)C(F)(F)F.O=C(O)C(F)(F)F
Mtb heat-shock: 3.704
Mtb growth Cornell: 30.96

compound: O=C1CC2(CCN(C(=O)C3CCCCC3)C2)Nc2ccccc2N1 (stereo not drawn)
Mtb heat-shock: -31.03
LdMetRS: 9.714

compound: CC(C)c1nn(CC(=O)N2CCCC2)c(=O)c2c1cnn2C(C)(C)C
Mtb heat-shock: -7.626
Mtb growth Cornell: -0.4213
LdMetRS: 5.944

compound: O=C(Cc1cn2ccsc2n1)N1CCCC(n2cccn2)C1 (stereo not drawn)
Mtb heat-shock: 11.48
LdMetRS: 17.21

compound: OC(COCc1ccccc1)CN1CCC(Cn2cccn2)CC1 (stereo not drawn)
Mtb heat-shock: -7.685
Mtb growth Cornell: -13.85
LdMetRS: 9.296

For reference, 3 entries once more:

compound	Mtb heat-shock	Mtb growth Cornell	LdMetRS
O=C(NCC1(N2CCOCC2)CCSC1)Nc1ccc(F)cc1 (stereo not drawn)	-10.33	-	6.884
CCS(=O)(=O)c1ccccc1C(=O)NCC1Cc2ccccc2O1 (stereo not drawn)	-14.34	3.9	9.03
CC(C)Nc1nc2c(cc1C(=O)NCC1CC1)CCNCC2.O=C(O)C(F)(F)F.O=C(O)C(F)(F)F	3.704	30.96	-